PubChem BioAssay AID1259254 – NCATS | 2017

Purpose: 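Gene knock-downs that lead to re-replication, shown by excess G2 DNA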 (primary screen)
System: human HCT116 colorectal cancer cells
Reagent: single siRNA against human genes
Timing: 3 days
Measured: 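Imaged Hoechst DNA stain sorts each cell into a cycle phase by DNA amount; per plate, G2 fraction set to 0% for non-targeting and 100% for GMNN siRNA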
Scale: G2 robust z-score and G2 cells, % of GMNN control: higher = more G2 cells, more excess DNA replication; raw share of cells in G2: higher = larger share of cells with G2 DNA content
Call rule: 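Active siRNAs have a G2 robust z of 5 or more median absolute deviations over the median, which in these data means about 38% or higher of GMNN control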
Here is an unselected part of about 59,000 reagents tested. About 1,550 of them (2.6%) count as active. 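G2 share is only a proxy for re-replication; each gene was hit by three separate siRNAs, and active genes were retested.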 The raw values are shown without normalisation. Reagents against one gene are numbered here. Not given: the amount of reagent.

no.	target gene	siRNA no.	G2 robust z-score	G2 cells, % of GMNN control	raw share of cells in G2 (%)	Call
1	OR4C3	1	-0.458	-0.252	3.49	inactive
2	OR4C3	2	0.889	9.22	6.29	inactive
3	OR4C3	3	-0.253	1.19	3.57	inactive
4	DLG4	1	6.58	49.3	22.5	active
5	DLG4	2	-0.017	2.85	6.03	inactive
6	DLG4	3	-0.332	0.634	4.31	inactive
7	DBX1	1	0.757	8.29	7.61	inactive
8	DBX1	2	-0.0525	2.6	6.88	inactive
9	DBX1	3	-1.15	-5.12	2.77	inactive
10	UTP4	1	1.23	11.6	9	inactive
11	UTP4	2	0.594	7.15	5.24	inactive
12	UTP4	3	0.223	4.54	4.36	inactive
13	HPCA	1	-0.9	-3.36	1.89	inactive
14	HPCA	2	-0.364	0.404	3.62	inactive
15	HPCA	3	-0.0638	2.52	6.03	inactive
16	TRPV3	1	2.79	22.6	13.5	inactive
17	TRPV3	2	1.41	12.9	9.14	inactive
18	TRPV3	3	0.0407	3.25	5.65	inactive
19	CEP135	1	-0.73	-2.17	4.38	inactive
20	CEP135	2	0.894	9.26	8.51	inactive
21	CEP135	3	0.105	3.71	4.46	inactive
22	SLC4A7	1	0.0524	3.34	6.46	inactive
23	SLC4A7	2	-1.02	-4.24	3.03	inactive
24	SLC4A7	3	-0.764	-2.41	2.38	inactive
25	EIF3FP3	1	0.261	4.81	5.64	inactive
26	EIF3FP3	2	0.308	5.13	5.5	inactive
27	EIF3FP3	3	0.427	5.97	6.59	inactive
28	TRANK1	1	0.345	5.4	7.77	inactive
29	TRANK1	2	-0.09	2.33	4.92	inactive
30	TRANK1	3	-0.109	2.2	4.21	inactive
31	ZNF689	1	0.364	5.53	4.99	inactive
32	ZNF689	2	3.47	27.4	12.7	inactive
33	ZNF689	3	1.69	14.8	8.73	inactive
34	ARHGAP45	1	-0.606	-1.29	5.85	inactive
35	ARHGAP45	2	-0.548	-0.89	3.86	inactive
36	ARHGAP45	3	0.761	8.32	6.71	inactive

Continued; the last 8 above are carried over.
no.	target gene	siRNA no.	G2 robust z-score	G2 cells, % of GMNN control	raw share of cells in G2 (%)	Call
29	TRANK1	2	-0.09	2.33	4.92	inactive
30	TRANK1	3	-0.109	2.2	4.21	inactive
31	ZNF689	1	0.364	5.53	4.99	inactive
32	ZNF689	2	3.47	27.4	12.7	inactive
33	ZNF689	3	1.69	14.8	8.73	inactive
34	ARHGAP45	1	-0.606	-1.29	5.85	inactive
35	ARHGAP45	2	-0.548	-0.89	3.86	inactive
36	ARHGAP45	3	0.761	8.32	6.71	inactive
37	QARS1	1	0.631	7.41	7.51	inactive
38	QARS1	2	0.321	5.22	5.88	inactive
39	QARS1	3	2.34	19.4	11.7	inactive
40	ABCC8	1	1.62	14.3	9.46	inactive
41	ABCC8	2	0.537	6.75	7.95	inactive
42	ABCC8	3	0.15	4.02	5.29	inactive
43	CFAP251	1	0.000241	2.97	4.1	inactive
44	CFAP251	2	-0.253	1.19	4.23	inactive
45	CFAP251	3	2.4	19.9	9.05	inactive
46	CETN2	1	0.806	8.64	6.89	inactive
47	CETN2	2	0.308	5.13	7.25	inactive
48	CETN2	3	-0.682	-1.83	2.44	inactive
49	ZNF570	1	0.844	8.9	6.15	inactive
50	ZNF570	2	0.31	5.15	4.95	inactive
51	ZNF570	3	-0.681	-1.82	2.89	inactive
52	SPSB1	1	1.37	12.6	10.7	inactive
53	SPSB1	2	11.1	81	33.5	active
54	SPSB1	3	-1.52	-7.71	1.93	inactive
55	RPSAP22	1	-0.218	1.43	3.58	inactive
56	RPSAP22	2	1.05	10.4	8.2	inactive
57	RPSAP22	3	0.0525	3.34	4.48	inactive
58	ZNF845	1	-0.101	2.26	5.04	inactive
59	ZNF845	2	-0.853	-3.03	2.05	inactive
60	ZNF845	3	0.586	7.09	5.17	inactive
61	WWP2	1	-1.35	-6.53	1.97	inactive
62	WWP2	2	-0.37	0.365	3.99	inactive
63	WWP2	3	-0.399	0.161	6.43	inactive
64	FAP	1	-0.953	-3.74	4.26	inactive
65	FAP	2	0.356	5.47	6.84	inactive
66	FAP	3	-0.427	-0.0371	3.9	inactive
67	SERPINA11	1	-0.444	-0.158	4.63	inactive
68	SERPINA11	2	2.74	22.3	12.8	inactive
69	SERPINA11	3	-0.586	-1.16	5.41	inactive
